Patent US8404644

Biological target: ovine βB2 crystallin (ovine)
Test: SDS PAGE under non-reducing conditions (homodimer)

binding: binds
Substance: ovine βB2 crystallin (from UniProt A0ACI6QA35 2-204)

Results are given in words; binding and its absence hold for the method and conditions named. Binding can be weak; no strength is given.
